Measurements: PubChem BioAssay AID238 (DTP/NCI, 2004)
The list shows only some results of the screen, not a fair sample: it is rich in T/C values a quarter to a half above the control, in often repeated tests (any T/C) and in doses without a T/C. Further doses and runs are listed elsewhere. T/C gives the treated animals as a percentage of the vehicle group. Some entries give survivors of the animals treated and no T/C: the source holds a T/C of zero for them, seemingly a mark for toxic or unscored doses. Some doses without a T/C left all or most animals alive at the check, yet need not have been tolerated: survival well below the control is almost never listed, so the zero probably covers shortened survival too. Counts of survivors are from the toxicity check (mostly the fifth day) where no day follows; animals may have died later. Schedules are NCI's codes, taken here to give the interval after Q, in days (D) or hours (H), and the number of doses after X. Some entries hold several experiments; their values stand side by side, smallest first. For survival time, the PubChem record calls one and a half times the control and up active, and a quarter to a half above the control has no call in these data; cut-offs in other NCI protocols can differ. Counts like (3×) count equal records among those shown.

System: CAF1 mice, leiomyosarcoma No.2 ip, survival T/C%
Test: NCI In Vivo Anticancer Drug Screen. Data for tumor model Leiomyosarcoma (No. 2) (intraperitoneal) in CAF1 mice
Conditions: T/C endpoint: mean survival time, higher T/C = longer survival
Procedure: The antitumor activity of compounds was measured in mice bearing transplantable tumors. Survival or tumor size were measured and the results are expressed as the measurement made in the treated group (T) divided by the measurement made in the vehicle treated control group (C). The tumor model used in this assay is Leiomyosarcoma (No. 2) (intraperitoneal) in CAF1 mice

[1] = dose: 25.0 mg/kg/injection, schedule: Q01DX010 (ip), vehicle: saline
[2] = dose: 3.13 mg/kg/injection, schedule: Q01DX010 (ip), vehicle: saline

SMILES: CCOC(=O)c1[nH]c2ccccc2c1CN(CCCl)CCCl
- survivor count (dose: 80.0 mg/kg/injection, schedule: Q01DX010 (ip), vehicle: saline): 0 of 6

SMILES: C[C@]12C=CC(=O)C=C1CC[C@@H]1[C@@H]2[C@@H](O)C[C@@]2(C)[C@H]1CC[C@]2(O)C(=O)CO
- survivor count (dose: 100.0 mg/kg/injection, schedule: Q01DX010 (sc), vehicle: steroid suspending solution): 6 of 6

SMILES: O=C(Nc1ccc(C2=NCCN2)cc1)c1cccc(C(=O)Nc2ccc(C3=NCCN3)cc2)c1
- T/C (dose: 32.0 mg/kg/injection, schedule: Q01DX010 (ip), vehicle: saline): 130 and 135 % of control
- T/C (dose: 64.0 mg/kg/injection, schedule: Q01DX010 (ip), vehicle: saline): 126 and 132 % of control

SMILES: CC(=O)Nc1ccc2nc3ccc(NC(C)=O)cc3[n+](-c3ccccc3)c2c1
- T/C [1]: 125 % of control
- T/C (dose: 50.0 mg/kg/injection, schedule: Q01DX010 (ip), vehicle: saline): 129 % of control
- T/C (dose: 100.0 mg/kg/injection, schedule: Q01DX010 (ip), vehicle: saline): 141 % of control
- T/C (dose: 200.0 mg/kg/injection, schedule: Q01DX010 (ip), vehicle: saline): 129 % of control

SMILES: O=c1[nH]cc(F)c(=O)[nH]1
- T/C (dose: 5.0 mg/kg/injection, schedule: Q01DX010 (ip), vehicle: saline): 136 % of control
- survivor count (dose: 40.0 mg/kg/injection, schedule: Q01DX010 (ip), vehicle: saline): 6 of 6

SMILES: O=C(O)CCCc1ccc(N(CCCl)CCCl)cc1
- T/C [2]: 125 % of control (2×)
- survivor count [1]: 0 of 6 and 2 of 6

SMILES: N=[N+]=CC(=O)OCC(N)C(=O)O (stereo not drawn)
- T/C [2]: 141 % of control
- T/C (dose: 6.25 mg/kg/injection, schedule: Q01DX010 (ip), vehicle: saline): 142 % of control
- survivor count [1]: 5 of 6

SMILES: O=C(Nc1ccc(NC2=NCCN2)cc1)c1ccc(C(=O)Nc2ccc(NC3=NCCN3)cc2)cc1
- T/C (dose: 4.0 mg/kg/injection, schedule: Q01DX010 (ip), vehicle: saline): 126 and 134 % of control
- T/C (dose: 8.0 mg/kg/injection, schedule: Q01DX010 (ip), vehicle: saline): 126 % of control
- T/C (dose: 16.0 mg/kg/injection, schedule: Q01DX010 (ip), vehicle: saline): 130 % of control
